Measurements published in patent publication US20240050522A1 (The Regents of the University of Michigan, priority 2020, published 2024).
Plain letter strings leave the end groups untold.

Assay: peptide made by a vendor
Conditions: whole synthesis, HPLC

## PVLDLFRELLNELLEALKQKLK
Run 1
  purity (crude or final not stated): approximately 85%
Run 2
  purity (crude or final not stated): ˜85%
